# Some of the results follow. The main result of the screen is listed elsewhere. These columns were measured beside it and carry no call. Most of these compounds were active or inconclusive in the main read-out, so they are no random draw. Words in brackets tell the shape of the fitted curve; partial curves, single points and poor fits give uncertain potencies.
# Experiment: Cell signaling CRE-BLA (Fsk stim)
# Details: CHO CRE-bla reporter (cAMP response element driving beta-lactamase), forskolin EC10, beta-lactamase ratio; measured here: 460 nm blue channel
# Summary of the method: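 Modulation of forskolin-driven signalling is measured in CHO cells carrying a CRE-controlled beta-lactamase reporter. Cells are stimulated with EC10 NKH 477 in the presence of titrated compound for 3 h at 37 °C, then loaded with CCF4 for 2 h at room temperature.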
row,Compound,AC50
1,Brc1ccc(-c2nn3c(-c4ccco4)nnc3s2)o1,"2.51 µM [falling, partial curve]"
2,COc1ccccc1CNc1ncnc2ccc(-c3ccccc3C#N)cc12,"2 µM [rising, partial curve]"
3,CCOC(=O)c1[nH]c(C)c(C(=O)Nc2cc(Cl)ccc2C)c1C,"7.94 µM [rising, partial curve]"
4,CC(C)Cn1cc(C(=O)N2CCN(c3ccccn3)CC2)c2c3ccccc3n(C)c2c1=O,"0.0794 µM [rising, single point]"
5,CC1CCCCC1NC(=O)CSc1nncs1 (stereo not drawn),"5.01 µM [falling, single point]"
6,CCN(CC)S(=O)(=O)c1ccc(N2CCCC2)c(C(=O)OCC(=O)/C(C#N)=C(\C)N)c1,"10 µM [rising, partial curve]"
7,CCN(CC)S(=O)(=O)c1ccc2oc(C(=O)NC(C)C)c(C)c2c1,"12.6 µM [rising, single point]"
8,COc1ccc(CCn2c(NCc3ccco3)nc3c2c(=O)[nH]c(=O)n3C)cc1,"3.98 µM [falling, partial curve]"
9,Cc1cc2occ(CC(=O)O)c2cc1C,"5.01 µM [falling, partial curve, poor fit]"
10,C=CCn1cnc2c(c1=O)c1nc3ccccc3nc1n2/N=C/c1cc(OC)c(OC)c(OC)c1,"6.31 µM [rising, partial curve]"
11,Cc1c(-c2ccccc2)nc(N)c(C#N)c1-c1ccco1,"15.8 µM [rising, partial curve]"
12,CCOC(=O)C1=C[C@@]2(CC)CCCN3CCc4c(n1c1ccccc41)[C@H]32,"31.6 µM [falling, single point]"
13,Cc1cnc(CNc2nc(-c3ccc4c(c3)OCO4)nc3ccccc23)cn1,"10 µM [rising, partial curve]"
14,COCCn1c(=O)c(-c2ccc(OC)cc2)nc2cnc(N3CCOCC3)nc21,"2.51 µM [rising, full curve]"
15,Cn1c(N2CCOCC2)nc(-c2ccccc2)c1-c1ccccc1,"10 µM [rising, single point]"
16,CC(C)C(NC(=O)C1CCCCC1)C(=O)NC1CCN(Cc2ccccc2)CC1 (stereo not drawn),"0.794 µM [falling, full curve]"
17,CC1(C)C(c2ccc(Cl)cc2)=[N+]([O-])C2(CCCC/C2=N\O)N1O (stereo not drawn),"0.00316 µM [falling, full curve, poor fit]"
18,C=CCOC(=O)C1=C(C)NC(SC)=C(C#N)C1c1ccc(OCC)cc1 (stereo not drawn),"12.6 µM [falling, partial curve]"

# 2 entries from above, as tab-separated lines.
row	Compound	AC50
1	Brc1ccc(-c2nn3c(-c4ccco4)nnc3s2)o1	2.51 µM [falling, partial curve]
15	Cn1c(N2CCOCC2)nc(-c2ccccc2)c1-c1ccccc1	10 µM [rising, single point]
